In publication PMC6572064, “Discovery of 2-(1-(3-(4-Chloroxyphenyl)-3-oxo- propyl)pyrrolidine-3-yl)-1H-benzo[d]imidazole-4-carboxamide: A Potent Poly(ADP-ribose) Polymerase (PARP) Inhibitor for Treatment of Cancer” (Molecules, 2019):
Several values for one entry are separate records, joined by “and”; a condition that tells them apart may be missing. Identical values can stand only once.

Test system: CAPAN-1 (a BRCA-2-mutated pancreatic cancer cell line)
Assay: Cell proliferation assay, three-day, CellTiter-Glo, CAPAN-1
Type: cell-based
Description: A three-day assay was conducted. A cell suspension was prepared. Cell density was counted by an automated cell counter and then diluted to the required density, according to seeding density. 50 μL cells were seeded into 384-well plate in growth medium according to the plate map. The cells were incubated at 37 °C, 5% CO2 overnight.
200× compound solution in DMSO was prepared and diluted with growth medium to 26× final concentration by addition of 26 μL 200× compounds to 174 μL growth medium. Then 2 μL of diluted compound solution was added to cells and the cell was incubated at 37 °C, 5% CO2 for 72 h.
The assay plate was equilibrated to room temperature prior to measurement. 15 μL of CellTiter-Glo Reagent was added into each well and the contents were mixed for 2 min on an orbital shaker to induce cell lysis. The cells were incubated at room temperature for 60 min to stabilize luminescent signal. Luminescence was recorded on the Envision system.

[1] = CAPAN-1, curve fit parameter, supplement Summary sheet
[2] = CAPAN-1, curve-fit parameter (Inh %)
[3] = CAPAN-1, curve-fit output, Inh %
[4] = CAPAN-1, summary line of the curve fit

Q: For `O=C(c1cc(Cc2n[nH]c(=O)c3ccccc23)ccc1F)N1CCN(C(=O)C2CC2)CC1` [pc2, Olaparib, reference compound], which Bottom [1] is on record?
A: The Bottom was -1.4.

Q: And the Hillslope [1]?
A: The Hillslope was 0.5.

Q: And the Top [1]?
A: The Top was 99.7.

Q: And the Hillslope (CAPAN-1, curve-fit parameter)?
A: The Hillslope was 0.4926 and 0.49.

Q: And the Top [2]?
A: Its Top is 99.65.

Q: What does the source list for `C[C@]1(c2nc3c(C(N)=O)cccc3[nH]2)CCCN1` [pc1, Veliparib, reference compound]?
A: Bottom [1]: -2.5; Hillslope [1]: 1.4; Top [1]: = 100.0; Hillslope (CAPAN-1, curve-fit parameter): 1.432 and 1.43; Top [2]: = 100.0

Q: For `NC(=O)c1cccc2[nH]c(C3CCN(CCC(=O)c4ccc(Cl)cc4)C3)nc12` (stereo not drawn) [Compound 5cj], which Bottom [1] is on record?
A: The Bottom was 2.7.

Q: What about the Hillslope [1] of the same compound?
A: The Hillslope was 3.5.

Q: And the Top [1]?
A: The Top was 99.5.

Q: And the Hillslope (CAPAN-1, curve-fit output)?
A: The Hillslope was 3.49.

Q: What about the Bottom [3] of the same compound?
A: The Bottom was 2.693.

Q: What about the Top [3] of the same compound?
A: The Top was 99.46.

Q: What about the Bottom [4] of the same compound?
A: The Bottom was 2.69.

Q: And the Hillslope [4]?
A: Its Hillslope is 3.49.

Q: What about the Top [4] of the same compound?
A: The Top was 99.46.

Q: With `NC(=O)c1cccc2[nH]c(C3CCN(CCC(O)c4ccccc4)C3)nc12` (stereo not drawn) [Compound 5cg, 2-(1-(3-Hydroxy-3-phenylpropyl)pyrrolidin-3-yl)-1H-benzo[d]imi-dazole-4-carboxamide] as the compound, how does the Bottom [1] read?
A: The Bottom was 5.2.

Q: And the Hillslope [1]?
A: Its Hillslope is 0.9.

Q: And the Top [1]?
A: The Top was “= 100.0”.

Q: And the Hillslope (CAPAN-1, curve-fit output)?
A: Its Hillslope is 0.9121.

Q: And the Bottom [3]?
A: Its Bottom is 5.177.

Q: What about the Top [3] of the same compound?
A: The Top was “= 100.0”.

Q: What about the Bottom [4] of the same compound?
A: Its Bottom is 5.18.

Q: What about the Hillslope [4] of the same compound?
A: The Hillslope was 0.91.

Q: What about the Top [4] of the same compound?
A: Its Top is “= 100.0”.

Q: Which results are given for `NC(=O)c1cccc2[nH]c(C3CCN(CC(=O)Nc4ccccc4)C3)nc12` (stereo not drawn) [Compound 5ca, 2-(1-(2-Oxo-2-(phenylamino)ethyl)pyrrolidin-3-yl)-1H-benzo[d]imidazole-4-carboxamide]?
A: Bottom [1]: 11.5; Hillslope [1]: 1.0; Top [1]: = 100.0; Bottom [4]: 11.48; Hillslope [4]: 1.05; Top [4]: = 100.0

Q: Which results are given for `CN[C@@H]1C[C@H]2O[C@@](C)([C@@H]1OC)n1c3ccccc3c3c4c(c5c6ccccc6n2c5c31)C(=O)NC4` [STS, reference compound]?
A: Bottom [1]: 8.4; Hillslope [1]: 0.6; Top [1]: 105.1

Q: How did the Bottom [1] turn out when `NC(=O)c1cccc2[nH]c(C3CCN(CCCC(=O)c4ccccc4)C3)nc12` (stereo not drawn) [Compound 5cc, 2-(1-(4-Oxo-4-phenylbutyl)pyrrolidin-3-yl)-1H-benzo[d]imidazole-4-carboxamide] was run?
A: The Bottom was 6.1.

Q: And the Hillslope [1]?
A: The Hillslope was 4.6.

Q: What about the Top [1] of the same compound?
A: Its Top is 99.8.

Q: What about the Hillslope (CAPAN-1, curve-fit output) of the same compound?
A: The Hillslope was 4.62.

Q: And the Bottom [3]?
A: Its Bottom is 6.121.

Q: And the Top [3]?
A: The Top was 99.81.

Q: What about the Bottom [4] of the same compound?
A: Its Bottom is 6.12.

Q: And the Hillslope [4]?
A: The Hillslope was 4.62.

Q: And the Top [4]?
A: Its Top is 99.81.

Q: `NC(=O)c1cccc2[nH]c(C3CCN(CCC(=O)c4ccccc4)C3)nc12` (stereo not drawn) [Compound 5cp, 2-(1-(3-Oxo-3-phenylpropyl)pyrrolidin-3-yl)-1H-benzo[d]imidazole-4-carboxamide] was tested. Which Bottom [1] did it give?
A: The Bottom was -1.7.

Q: And the Hillslope [1]?
A: Its Hillslope is 5.3.

Q: What about the Top [1] of the same compound?
A: The Top was 99.4.

Q: And the Hillslope (CAPAN-1, curve-fit parameter)?
A: The Hillslope was 5.344 and 5.34.

Q: And the Top [2]?
A: Its Top is 99.41.

Q: Which results are given for `NC(=O)c1cccc2[nH]c(C3CCN(CC(=O)c4ccccc4)C3)nc12` (stereo not drawn) [Compound 5cd, 2-(1-(2-Oxo-2-phenylethyl)pyrrolidin-3-yl)-1H-benzo[d]imidazole-4-carboxa-mide]?
A: Bottom [1]: 2.3; Hillslope [1]: 2.3; Top [1]: = 100.0; Hillslope (CAPAN-1, curve-fit output): 2.268; Bottom [3]: 2.285; Top [3]: = 100.0; Bottom [4]: 2.29; Hillslope [4]: 2.27; Top [4]: = 100.0

Q: With `COc1ccc(C(=O)CCN2CCC(c3nc4c(C(N)=O)cccc4[nH]3)C2)cc1` (stereo not drawn) [Compound 5ci, 2-(1-(3-(4-Methoxyphenyl)-3-oxopropyl)pyrrolidin-3-yl)-1H-benzo[d]imidazole-4-carboxamide] as the compound, how does the Bottom [1] read?
A: Its Bottom is -0.159.

Q: What about the Hillslope [1] of the same compound?
A: Its Hillslope is 2.9.

Q: And the Top [1]?
A: Its Top is 90.3.

Q: What about the Hillslope (CAPAN-1, curve-fit output) of the same compound?
A: Its Hillslope is 2.876.

Q: What about the Bottom [3] of the same compound?
A: The Bottom was -0.1586.

Q: And the Top [3]?
A: The Top was 90.32.

Q: What about the Bottom [4] of the same compound?
A: Its Bottom is -0.16.

Q: What about the Hillslope [4] of the same compound?
A: Its Hillslope is 2.88.

Q: What about the Top [4] of the same compound?
A: The Top was 90.32.

Q: What does the source list for `NC(=O)c1cccc2[nH]c(C3CCN(CCC(=O)Nc4ccccc4)C3)nc12` (stereo not drawn) [Compound 5cb, 2-(1-(3-Oxo-3-(Phenylamino)propyl)pyrrolidin-3-yl)-1H-benzo[d]imidazole-4-carboxamide]?
A: Bottom [1]: 4.2; Hillslope [1]: 1.6; Top [1]: = 100.0; Hillslope (CAPAN-1, curve-fit output): 1.634; Bottom [3]: 4.171; Top [3]: = 100.0; Bottom [4]: 4.17; Hillslope [4]: 1.63; Top [4]: = 100.0

Q: For `NC(=O)c1cccc2[nH]c(C3CCN(CCCNc4ccccc4)C3)nc12` (stereo not drawn) [Compound 5ch, 2-(1-(3-(Phenylamino)propyl)pyrrolidin-3-yl)-1H-benzo[d]imidazole-4-carboxamide], which Bottom [1] is on record?
A: The Bottom was 0.5.

Q: What about the Hillslope [1] of the same compound?
A: The Hillslope was 0.9.

Q: What about the Top [1] of the same compound?
A: The Top was “= 100.0”.

Q: What about the Hillslope (CAPAN-1, curve-fit output) of the same compound?
A: Its Hillslope is 0.9232.

Q: And the Bottom [3]?
A: The Bottom was 0.5258.

Q: What about the Top [3] of the same compound?
A: Its Top is “= 100.0”.

Q: And the Bottom [4]?
A: Its Bottom is 0.53.

Q: And the Hillslope [4]?
A: The Hillslope was 0.92.

Q: And the Top [4]?
A: The Top was “= 100.0”.
